Laboratory results taken from the supplement of paper PMC12819154, “High-throughput peptide-centric local stability assay extends protein–ligand identification to membrane proteins, tissues and bacteria” (Nature Structural & Molecular Biology, 2025).
The list shows a part of the results. Small differences around the control level are noise.

Amino acid sequences for entries named in this document (tags omitted). A change or cut given only in a name is not applied to a line headed by its entry.
UniProt O08796: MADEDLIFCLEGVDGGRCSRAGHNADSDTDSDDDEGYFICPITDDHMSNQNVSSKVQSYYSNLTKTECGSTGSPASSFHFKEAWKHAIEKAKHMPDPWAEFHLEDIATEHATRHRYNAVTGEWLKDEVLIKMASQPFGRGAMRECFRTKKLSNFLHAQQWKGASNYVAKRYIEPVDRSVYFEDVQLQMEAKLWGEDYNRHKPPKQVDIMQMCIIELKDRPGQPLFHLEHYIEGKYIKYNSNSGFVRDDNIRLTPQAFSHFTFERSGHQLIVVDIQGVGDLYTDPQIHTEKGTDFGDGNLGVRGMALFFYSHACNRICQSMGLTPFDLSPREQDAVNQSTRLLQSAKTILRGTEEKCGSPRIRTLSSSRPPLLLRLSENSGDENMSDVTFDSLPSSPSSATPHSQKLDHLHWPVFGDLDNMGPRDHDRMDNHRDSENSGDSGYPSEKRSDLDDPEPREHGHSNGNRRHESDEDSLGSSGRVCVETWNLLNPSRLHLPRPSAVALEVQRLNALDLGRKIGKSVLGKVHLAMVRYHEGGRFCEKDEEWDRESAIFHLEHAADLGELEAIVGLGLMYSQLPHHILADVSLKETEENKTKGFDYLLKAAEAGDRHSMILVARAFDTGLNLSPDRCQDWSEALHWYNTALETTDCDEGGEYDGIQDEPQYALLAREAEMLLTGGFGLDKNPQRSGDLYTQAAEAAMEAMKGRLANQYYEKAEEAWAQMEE
UniProt O08600: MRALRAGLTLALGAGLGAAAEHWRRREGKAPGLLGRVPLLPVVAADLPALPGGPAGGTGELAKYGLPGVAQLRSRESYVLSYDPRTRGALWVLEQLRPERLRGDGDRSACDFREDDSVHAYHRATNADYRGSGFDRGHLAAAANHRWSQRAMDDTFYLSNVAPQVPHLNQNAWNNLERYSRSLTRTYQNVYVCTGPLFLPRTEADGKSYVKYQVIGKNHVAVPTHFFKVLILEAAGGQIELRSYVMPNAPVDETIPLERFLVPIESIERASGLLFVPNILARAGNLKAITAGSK
UniProt E9Q2M9: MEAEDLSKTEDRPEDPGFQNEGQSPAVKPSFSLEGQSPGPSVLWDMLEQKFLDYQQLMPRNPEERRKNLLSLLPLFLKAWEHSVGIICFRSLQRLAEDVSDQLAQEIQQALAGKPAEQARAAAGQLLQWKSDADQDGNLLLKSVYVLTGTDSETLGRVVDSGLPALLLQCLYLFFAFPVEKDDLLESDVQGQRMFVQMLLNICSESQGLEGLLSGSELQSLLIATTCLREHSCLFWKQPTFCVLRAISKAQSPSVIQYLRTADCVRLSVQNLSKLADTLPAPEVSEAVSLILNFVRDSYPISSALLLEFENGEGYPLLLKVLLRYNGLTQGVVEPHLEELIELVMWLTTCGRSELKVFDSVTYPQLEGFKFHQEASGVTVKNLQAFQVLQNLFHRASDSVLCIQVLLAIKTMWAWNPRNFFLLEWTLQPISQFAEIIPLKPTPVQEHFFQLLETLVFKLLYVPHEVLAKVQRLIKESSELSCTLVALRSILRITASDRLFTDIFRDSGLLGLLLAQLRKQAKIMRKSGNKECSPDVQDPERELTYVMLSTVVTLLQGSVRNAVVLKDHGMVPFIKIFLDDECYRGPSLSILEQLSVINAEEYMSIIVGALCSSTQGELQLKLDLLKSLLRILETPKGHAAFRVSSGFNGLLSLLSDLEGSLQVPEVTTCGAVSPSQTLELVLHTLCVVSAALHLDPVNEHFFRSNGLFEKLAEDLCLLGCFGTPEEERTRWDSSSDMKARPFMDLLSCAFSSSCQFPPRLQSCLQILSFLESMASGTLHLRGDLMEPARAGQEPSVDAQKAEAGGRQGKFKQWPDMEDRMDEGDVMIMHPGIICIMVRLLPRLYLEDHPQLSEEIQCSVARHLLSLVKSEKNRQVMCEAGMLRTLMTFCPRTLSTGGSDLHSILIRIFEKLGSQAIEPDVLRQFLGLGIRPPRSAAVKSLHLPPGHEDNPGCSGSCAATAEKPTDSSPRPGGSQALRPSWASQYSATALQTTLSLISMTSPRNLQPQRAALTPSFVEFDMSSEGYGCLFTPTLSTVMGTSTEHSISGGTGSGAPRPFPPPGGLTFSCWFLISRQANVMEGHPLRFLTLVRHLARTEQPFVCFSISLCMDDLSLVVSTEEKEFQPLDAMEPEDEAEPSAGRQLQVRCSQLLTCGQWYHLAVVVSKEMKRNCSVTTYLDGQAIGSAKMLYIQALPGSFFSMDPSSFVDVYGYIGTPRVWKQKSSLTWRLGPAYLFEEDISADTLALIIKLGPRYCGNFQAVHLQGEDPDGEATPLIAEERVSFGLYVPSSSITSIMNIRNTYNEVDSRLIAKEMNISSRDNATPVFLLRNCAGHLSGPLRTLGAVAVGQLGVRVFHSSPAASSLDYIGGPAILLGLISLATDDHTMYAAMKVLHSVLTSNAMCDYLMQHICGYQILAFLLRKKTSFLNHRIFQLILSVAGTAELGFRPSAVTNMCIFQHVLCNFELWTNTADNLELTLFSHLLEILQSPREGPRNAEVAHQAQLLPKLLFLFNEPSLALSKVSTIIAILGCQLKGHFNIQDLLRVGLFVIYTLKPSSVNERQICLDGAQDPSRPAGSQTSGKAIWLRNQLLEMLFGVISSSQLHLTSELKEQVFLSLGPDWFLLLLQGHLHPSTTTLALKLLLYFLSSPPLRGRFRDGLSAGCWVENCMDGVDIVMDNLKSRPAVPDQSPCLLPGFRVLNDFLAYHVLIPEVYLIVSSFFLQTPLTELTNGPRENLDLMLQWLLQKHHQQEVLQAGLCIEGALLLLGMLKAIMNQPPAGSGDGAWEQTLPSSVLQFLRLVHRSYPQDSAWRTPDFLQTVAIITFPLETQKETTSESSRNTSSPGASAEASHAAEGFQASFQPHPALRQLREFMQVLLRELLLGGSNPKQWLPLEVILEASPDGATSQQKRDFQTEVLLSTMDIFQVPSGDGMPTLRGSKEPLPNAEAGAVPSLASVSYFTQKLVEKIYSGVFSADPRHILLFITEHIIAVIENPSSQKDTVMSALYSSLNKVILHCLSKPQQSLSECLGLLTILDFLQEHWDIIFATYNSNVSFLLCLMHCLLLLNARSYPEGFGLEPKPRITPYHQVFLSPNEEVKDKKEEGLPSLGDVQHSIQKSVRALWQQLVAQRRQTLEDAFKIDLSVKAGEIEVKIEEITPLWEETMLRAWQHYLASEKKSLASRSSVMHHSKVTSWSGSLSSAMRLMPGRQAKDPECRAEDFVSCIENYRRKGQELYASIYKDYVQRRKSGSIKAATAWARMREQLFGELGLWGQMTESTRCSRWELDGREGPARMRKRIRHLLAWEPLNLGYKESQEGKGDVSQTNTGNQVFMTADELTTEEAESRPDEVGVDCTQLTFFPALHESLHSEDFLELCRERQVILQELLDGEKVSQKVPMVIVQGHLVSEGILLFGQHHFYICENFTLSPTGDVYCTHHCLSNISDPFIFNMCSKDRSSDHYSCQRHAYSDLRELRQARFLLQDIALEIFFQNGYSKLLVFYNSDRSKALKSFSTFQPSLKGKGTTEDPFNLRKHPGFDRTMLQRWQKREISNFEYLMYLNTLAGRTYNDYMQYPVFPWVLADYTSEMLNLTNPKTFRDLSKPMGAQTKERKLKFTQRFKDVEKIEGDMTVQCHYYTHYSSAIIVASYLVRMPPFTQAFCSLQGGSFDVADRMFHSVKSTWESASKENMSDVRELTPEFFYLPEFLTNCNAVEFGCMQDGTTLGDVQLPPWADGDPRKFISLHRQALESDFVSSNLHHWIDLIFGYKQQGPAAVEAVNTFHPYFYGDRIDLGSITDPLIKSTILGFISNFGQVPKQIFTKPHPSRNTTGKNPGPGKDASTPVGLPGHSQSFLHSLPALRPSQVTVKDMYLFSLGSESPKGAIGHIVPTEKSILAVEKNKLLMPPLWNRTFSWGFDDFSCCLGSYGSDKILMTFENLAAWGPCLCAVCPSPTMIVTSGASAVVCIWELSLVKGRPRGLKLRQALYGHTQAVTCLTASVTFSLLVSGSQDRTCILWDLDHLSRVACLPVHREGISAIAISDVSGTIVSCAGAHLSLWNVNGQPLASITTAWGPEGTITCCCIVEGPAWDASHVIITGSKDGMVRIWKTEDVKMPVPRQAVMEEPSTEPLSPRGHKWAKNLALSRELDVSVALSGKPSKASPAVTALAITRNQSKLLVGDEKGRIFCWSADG
UniProt E9Q1P8: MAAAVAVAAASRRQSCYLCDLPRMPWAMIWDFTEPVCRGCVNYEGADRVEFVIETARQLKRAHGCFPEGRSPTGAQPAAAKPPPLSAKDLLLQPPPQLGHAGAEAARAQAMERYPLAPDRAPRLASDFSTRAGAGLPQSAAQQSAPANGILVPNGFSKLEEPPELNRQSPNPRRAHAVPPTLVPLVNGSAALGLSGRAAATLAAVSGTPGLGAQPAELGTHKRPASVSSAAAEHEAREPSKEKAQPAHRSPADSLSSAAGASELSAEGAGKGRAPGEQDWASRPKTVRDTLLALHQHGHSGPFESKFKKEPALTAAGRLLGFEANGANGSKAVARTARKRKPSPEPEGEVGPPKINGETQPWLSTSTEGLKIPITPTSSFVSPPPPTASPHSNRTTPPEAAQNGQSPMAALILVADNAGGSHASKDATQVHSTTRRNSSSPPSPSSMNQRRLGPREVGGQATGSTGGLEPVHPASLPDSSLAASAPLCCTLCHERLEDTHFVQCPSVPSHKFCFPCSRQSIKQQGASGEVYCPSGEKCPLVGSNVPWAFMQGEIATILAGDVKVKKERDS
UniProt B2RUR8: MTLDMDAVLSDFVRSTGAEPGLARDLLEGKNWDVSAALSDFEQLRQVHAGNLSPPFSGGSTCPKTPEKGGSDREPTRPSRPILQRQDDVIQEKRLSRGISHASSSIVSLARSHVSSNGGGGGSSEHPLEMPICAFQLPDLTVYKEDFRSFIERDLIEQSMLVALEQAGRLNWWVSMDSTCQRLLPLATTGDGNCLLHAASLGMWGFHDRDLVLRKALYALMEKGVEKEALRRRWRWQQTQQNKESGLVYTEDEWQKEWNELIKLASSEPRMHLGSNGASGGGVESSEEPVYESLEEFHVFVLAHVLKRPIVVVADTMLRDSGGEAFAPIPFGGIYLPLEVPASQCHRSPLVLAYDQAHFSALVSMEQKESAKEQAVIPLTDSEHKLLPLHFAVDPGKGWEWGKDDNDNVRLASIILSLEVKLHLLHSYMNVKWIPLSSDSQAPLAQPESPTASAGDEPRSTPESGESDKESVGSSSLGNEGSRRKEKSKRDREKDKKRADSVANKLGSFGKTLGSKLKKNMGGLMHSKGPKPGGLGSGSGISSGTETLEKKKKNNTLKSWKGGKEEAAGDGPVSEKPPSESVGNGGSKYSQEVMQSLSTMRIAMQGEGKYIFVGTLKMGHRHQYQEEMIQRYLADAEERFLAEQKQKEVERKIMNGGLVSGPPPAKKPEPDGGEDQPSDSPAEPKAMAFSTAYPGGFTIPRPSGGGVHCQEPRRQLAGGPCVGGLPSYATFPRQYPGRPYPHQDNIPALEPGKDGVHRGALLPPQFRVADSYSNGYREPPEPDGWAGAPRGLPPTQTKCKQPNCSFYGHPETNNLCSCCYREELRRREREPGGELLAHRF
UniProt E9Q6W4: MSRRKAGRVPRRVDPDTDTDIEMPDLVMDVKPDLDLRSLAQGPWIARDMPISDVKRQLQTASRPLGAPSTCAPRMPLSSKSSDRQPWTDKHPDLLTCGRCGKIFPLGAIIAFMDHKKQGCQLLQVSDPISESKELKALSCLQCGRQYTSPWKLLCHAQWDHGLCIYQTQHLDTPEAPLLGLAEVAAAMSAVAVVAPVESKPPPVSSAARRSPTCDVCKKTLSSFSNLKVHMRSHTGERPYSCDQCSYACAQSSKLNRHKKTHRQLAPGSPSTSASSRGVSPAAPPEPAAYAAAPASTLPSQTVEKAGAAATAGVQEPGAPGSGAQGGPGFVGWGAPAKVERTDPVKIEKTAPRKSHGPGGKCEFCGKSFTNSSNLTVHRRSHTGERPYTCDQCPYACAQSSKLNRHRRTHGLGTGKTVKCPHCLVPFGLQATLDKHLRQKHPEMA
UniProt O35326: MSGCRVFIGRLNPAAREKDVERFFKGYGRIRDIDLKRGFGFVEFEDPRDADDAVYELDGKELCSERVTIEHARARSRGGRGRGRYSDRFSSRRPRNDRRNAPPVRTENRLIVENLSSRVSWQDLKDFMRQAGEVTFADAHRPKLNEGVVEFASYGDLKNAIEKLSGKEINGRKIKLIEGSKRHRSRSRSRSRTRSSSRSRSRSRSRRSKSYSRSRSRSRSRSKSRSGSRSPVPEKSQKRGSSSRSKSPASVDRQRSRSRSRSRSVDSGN
UniProt O35130: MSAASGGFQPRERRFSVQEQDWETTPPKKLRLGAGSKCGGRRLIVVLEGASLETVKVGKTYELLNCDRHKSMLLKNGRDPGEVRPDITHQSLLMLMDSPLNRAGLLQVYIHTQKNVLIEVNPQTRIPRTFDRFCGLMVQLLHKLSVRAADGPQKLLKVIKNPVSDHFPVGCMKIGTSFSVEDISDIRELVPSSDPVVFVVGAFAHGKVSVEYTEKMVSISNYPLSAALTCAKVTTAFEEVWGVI

The targets below were run with CN[C@@H]1C[C@H]2O[C@@](C)([C@@H]1OC)n1c3ccccc3c3c4c(c5c6ccccc6n2c5c31)C(=O)NC4 [staurosporine] (assay: log2 fold change of tryptic peptide abundance, ligand vs vehicle (limited proteolysis) (log2 ratio); higher = more trypsin-susceptible (destabilized)). Settings: ligand concentration: 20 uM; sample: mouse liver crude lysate; replicate design: treated separately.
In the case of “UniProt B9EJR8 (peptide sequence: AALLDPFAAVR, peptide start residue: 171)”, the log2 fold change was 0.199. Target “UniProt O08796 (peptide sequence: FCEKDEEWDR, peptide start residue: 538)” has a log2 fold change of -0.903. In the case of “UniProt O08600 (peptide sequence: NHVAVPTHFFK, peptide start residue: 218)”, the log2 fold change was 0.145. For “UniProt E9Q2M9 (peptide sequence: GTTEDPFNLR, peptide start residue: 2518)”, the log2 fold change was -0.224. With “UniProt E9Q7M2 (peptide sequence: LDHGSGEPYRR, peptide start residue: 155)” the log2 fold change was 0.655. “UniProt E9Q1P8 (peptide sequence: FKKEPALTAAGR, peptide start residue: 307)” showed a log2 fold change of 0.239. Work on “UniProt O08609 (peptide sequence: IMKVNYEQIVK, peptide start residue: 210)” yielded a log2 fold change of -0.34. Target “UniProt O08539 (peptide sequence: QHGSNTFTVK, peptide start residue: 273)” has a log2 fold change of -0.182. “UniProt B2RUR8 (peptide sequence: NMGGLMHSK, peptide start residue: 520)” gave a log2 fold change of 0.329. With “UniProt O09100 (peptide sequence: DGTGHYLCNACGLYHK, peptide start residue: 230)” the log2 fold change was -0.361. For “UniProt B2RXC1 (peptide sequence: FIPTSIFVKPQGR, peptide start residue: 1111)”, the log2 fold change was -0.0792. With “UniProt O08750 (peptide sequence: LNDLVLENK, peptide start residue: 96)” the log2 fold change was -0.33. Work on “UniProt O08970 (peptide sequence: QVSHGNFSTQAR, peptide start residue: 351)” yielded a log2 fold change of 0.461. For “UniProt D3Z5L6 (peptide sequence: AQNSLGTEEER, peptide start residue: 441)”, the log2 fold change was -0.0312. “UniProt E9Q394 (peptide sequence: RAETFGGFDCHQMNASK, peptide start residue: 2428)” was tested, and the log2 fold change was -0.284. “UniProt E9Q6W4 (peptide sequence: SHGPGGK, peptide start residue: 355)” was tested, and the log2 fold change was 0.294. For “UniProt O08579 (peptide sequence: IFEYETQRR, peptide start residue: 38)”, the log2 fold change was 0.868. With “UniProt F6ZDS4 (peptide sequence: KLLEEDVK, peptide start residue: 1400)” the log2 fold change was 0.528. With “UniProt O35326 (peptide sequence: DADDAVYELDGK, peptide start residue: 49)” the log2 fold change was 0.111. Work on “UniProt O35231 (peptide sequence: VFEFGYNNR, peptide start residue: 623)” yielded a log2 fold change of 0.371. “UniProt E0CYV9 (peptide sequence: KMQREHEFK, peptide start residue: 809)” was tested, and the log2 fold change was 0.179. Target “UniProt B2RUP2 (peptide sequence: LALVYCSLIK, peptide start residue: 668)” has a log2 fold change of 0.177. For “UniProt E9Q7F2 (peptide sequence: TCISTVMK, peptide start residue: 549)”, the log2 fold change was 0.542. “UniProt G5E829 (peptide sequence: IDESSLTGESDHVKK, peptide start residue: 238)” gave a log2 fold change of -0.296. “UniProt O09106 (peptide sequence: EKDPEEKK, peptide start residue: 450)” showed a log2 fold change of 0.502. Target “UniProt O35130 (peptide sequence: FCGLMVQLLHK, peptide start residue: 133)” has a log2 fold change of 0.652. “UniProt E9Q793 (peptide sequence: KKALDYAK, peptide start residue: 704)” showed a log2 fold change of -0.0419. “UniProt O35239 (peptide sequence: NQQSMAVGNLGAR, peptide start residue: 489)” showed a log2 fold change of 0.214. In the case of “UniProt B2RXS4 (peptide sequence: VWHLVRPTDEVDEGKSK, peptide start residue: 1592)”, the log2 fold change was -0.397. “UniProt E9Q6P5 (peptide sequence: SECQWER, peptide start residue: 19)” showed a log2 fold change of -0.402. Target “UniProt D3Z2X2 (peptide sequence: KEQKAEENK, peptide start residue: 3617)” has a log2 fold change of 0.027.
